Results reported in the supplement of paper PMC4604168 (melanoma cell lines).
Some of the results follow. Many values rest on one well or one pass, so single values are uncertain.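 Cells were imaged in 1,536-well plates, and nuclei stained with an antibody against cleaved PARP were counted against all DNA-stained nuclei to give the apoptosis fraction. Screening doses were chosen to leave most cells alive, and resting and induced cleaved-PARP levels differ strongly between cell lines.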

Columns and labels:
Experiment in all cases: cleaved PARP positive nuclei fraction relative to DMSO control; melanoma cells; higher = more apoptosis
Settings in all cases: library dose: low library concentration; 72 h
WM115 = system: WM115
WM1716 = system: WM1716
WM1745 = system: WM1745
WM3526 = system: WM3526
WM3619 = system: WM3619
WM451Lu = system: WM451Lu

SMILES	cleaved PARP positive nuclei fraction (WM115) [%]	cleaved PARP positive nuclei fraction (WM1716) [%]	cleaved PARP positive nuclei fraction (WM1745) [%]	cleaved PARP positive nuclei fraction (WM3526) [%]	cleaved PARP positive nuclei fraction (WM3619) [%]	cleaved PARP positive nuclei fraction (WM451Lu) [%]
COc1ccc2c(c1)CCC1C2CCC2(C)C(NCCCCCCN3C(=O)C=CC3=O)CCC12 (stereo unspecified) + O=C(Oc1ccc([N+](=O)[O-])cc1)N1CCC(C(O)(c2ccc3c(c2)OCO3)c2ccc3c(c2)OCO3)CC1 [JZL184] (first compound 0.4 µM, partner dose 1 µM)	50	107	115	83	95.1	116
O=c1[nH]nc(Sc2ncc([N+](=O)[O-])s2)n1-c1ccc2c(c1)OCCO2 + C[C@]12O[C@H](C[C@]1(O)CO)n1c3ccccc3c3c4c(c5c6ccccc6n2c5c31)CNC4=O [Lestaurtinib] (first compound 0.2 µM, partner dose 0.004 µM)	95.6	140	103	88.6	94.4	83.2
C[As](C)SC[C@H](NC(=O)CC[C@H](N)C(=O)O)C(=O)NCC(=O)O [Darinaparsin] + Cc1cc(SCc2sc(-c3ccc(C(F)(F)F)c(F)c3)nc2C)ccc1OCC(=O)O [GW0742] (first compound 0.4 µM, partner dose 2 µM)	80.7	46.1	106	93.5	73.3	63.1
CC1(C)CCC(c2ccc(Cl)cc2)=C(CN2CCN(c3ccc(C(=O)NS(=O)(=O)c4ccc(N[C@H](CCN5CCOCC5)CSc5ccccc5)c(S(=O)(=O)C(F)(F)F)c4)cc3)CC2)C1 + C/C(O)=C(\C#N)C(=O)Nc1cc(Br)ccc1Br [LFM-A13] (first compound 0.4 µM, partner dose 2 µM)	219	432	1040	202	108	133
Cn1sc(=O)n(Cc2ccccc2)c1=O + C[C@]12O[C@H](C[C@]1(O)CO)n1c3ccccc3c3c4c(c5c6ccccc6n2c5c31)CNC4=O [Lestaurtinib] (first compound 0.4 µM, partner dose 0.004 µM)	89.3	67.3	81.9	83.4	99.6	40.7
CC(C)C[C@H](NC(=O)[C@H](Cc1ccccc1)NC(=O)c1cnccn1)B(O)O [Bortezomib] + N.N.[Cl][Pt][Cl] [cisplatin] (first compound 0.001 µM, partner dose 1.6 µM)	125	366	120	86.8	342	162
O=C(O)[C@@H]1[O][Sb](=[O])([O][Sb]2(=[O])[O][C@H]([C@H](O)CO)[C@H](O)[C@H](C(=O)O)[O]2)[O][C@H]([C@H](O)CO)[C@@H]1O (stereo partly specified) [stibogluconate] + O=C(Oc1ccc([N+](=O)[O-])cc1)N1CCC(C(O)(c2ccc3c(c2)OCO3)c2ccc3c(c2)OCO3)CC1 [JZL184] (first compound 2 µM, partner dose 1 µM)	110	333	82.1	78.2	99.7	37.5
Cc1ccc(Nc2nccc(N(C)c3ccc4c(C)n(C)nc4c3)n2)cc1S(N)(=O)=O [Pazopanib] + C[As](C)SC[C@H](NC(=O)CC[C@H](N)C(=O)O)C(=O)NCC(=O)O [Darinaparsin] (first compound 0.4 µM, partner dose 0.4 µM)	29.4	247	100	142	91.6	20
CO[C@@H]1[C@H](N(C)C(=O)c2ccccc2)C[C@H]2O[C@]1(C)n1c3ccccc3c3c4c(c5c6ccccc6n2c5c31)C(=O)NC4 [Midostaurin] + C/C(O)=C(\C#N)C(=O)Nc1cc(Br)ccc1Br [LFM-A13] (first compound 0.08 µM, partner dose 2 µM)	258	118	108	36.1	90.8	30.4
CN(NC(=O)CC(=O)NN(C)C(=S)c1ccccc1)C(=S)c1ccccc1 + C/C(O)=C(\C#N)C(=O)Nc1cc(Br)ccc1Br [LFM-A13] (first compound 0.006 µM, partner dose 2 µM)	244	180	998	66	343	93.1
COc1ccc2c(c1)CCC1C2CCC2(C)C(NCCCCCCN3C(=O)C=CC3=O)CCC12 (stereo unspecified) + Cc1cc(SCc2sc(-c3ccc(C(F)(F)F)c(F)c3)nc2C)ccc1OCC(=O)O [GW0742] (first compound 0.4 µM, partner dose 2 µM)	56.7	102	97	248	84	50.9
C[As](C)SC[C@H](NC(=O)CC[C@H](N)C(=O)O)C(=O)NCC(=O)O [Darinaparsin] + O=S(=O)(c1ccccc1)N(CC(F)(F)F)c1ccc(C(O)(C(F)(F)F)C(F)(F)F)cc1 [T0901317] (first compound 0.4 µM, partner dose 1.4 µM)	74	130	117	75.4	83.1	58.9
N.N.[Cl][Pt][Cl] [cisplatin] + CC(C)(C)c1cnc(CSc2cnc(NC(=O)C3CCNCC3)s2)o1 [SNS-032] (first compound 1.6 µM, partner dose 0.01 µM)	63.5	119	92.3	58.2	82.5	60
C/C(O)=C(\C#N)C(=O)Nc1cc(Br)ccc1Br + O=c1cc(-c2cccc3c2Sc2ccccc2S3)oc(N2CCOCC2)c1 [KU55933] (first compound 2 µM, partner dose 1 µM)	70.5	93.4	235	79.2	70.3	120
CO[C@H]1C[C@@H]2CC[C@@H](C)[C@@](O)(O2)C(=O)C(=O)N2CCCC[C@H]2C(=O)O[C@H]([C@H](C)C[C@@H]2CC[C@@H](OCCO)[C@H](OC)C2)CC(=O)[C@H](C)/C=C(\C)[C@@H](O)[C@@H](OC)C(=O)[C@H](C)C[C@H](C)/C=C/C=C/C=C/1C [everolimus] + C[As](C)SC[C@H](NC(=O)CC[C@H](N)C(=O)O)C(=O)NCC(=O)O [Darinaparsin] (first compound 0.02 µM, partner dose 0.4 µM)	181	51.2	114	121	132	61.4
Cn1cc(C2=C(c3cn(C4CCN(Cc5ccccn5)CC4)c4ccccc34)C(=O)NC2=O)c2ccccc21 [Enzastaurin] + CS(=O)(=O)c1ccc(C(=O)Nc2ccc(Cl)c(-c3ccccn3)c2)c(Cl)c1 [vismodegib] (first compound 0.8 µM, partner dose 1 µM)	113	136	91	149	76.6	231
N#CC[C@H](C1CCCC1)n1cc(-c2ncnc3[nH]ccc23)cn1 [ruxolitinib] + C[As](C)SC[C@H](NC(=O)CC[C@H](N)C(=O)O)C(=O)NCC(=O)O [Darinaparsin] (first compound 1 µM, partner dose 0.4 µM)	68.4	65.8	93.5	83.8	98	101
Cn1cc(C2=C(c3cn(C4CCN(Cc5ccccn5)CC4)c4ccccc34)C(=O)NC2=O)c2ccccc21 [Enzastaurin] + OCc1c[nH]c2ccccc12 [Indole-3-carbinol] (first compound 0.8 µM, partner dose 0.8 µM)	111	124	92.5	27.2	100	88.1
Cn1sc(=O)n(Cc2ccccc2)c1=O + Cc1cc(SCc2sc(-c3ccc(C(F)(F)F)c(F)c3)nc2C)ccc1OCC(=O)O [GW0742] (first compound 0.4 µM, partner dose 2 µM)	114	33.7	557	141	101	211
NC(=O)c1ccc(N(C(N)=O)c2c(F)cccc2F)nc1-c1ccc(F)cc1F + Cc1cc(SCc2sc(-c3ccc(C(F)(F)F)c(F)c3)nc2C)ccc1OCC(=O)O [GW0742] (first compound 0.4 µM, partner dose 2 µM)	270	93.1	81.5	67.5	94.1	62.8
Cn1cncc1[C@@](N)(c1ccc(Cl)cc1)c1ccc2c(c1)c(-c1cccc(Cl)c1)cc(=O)n2C [tipifarnib] + Cc1cc(SCc2sc(-c3ccc(C(F)(F)F)c(F)c3)nc2C)ccc1OCC(=O)O [GW0742] (first compound 0.01 µM, partner dose 2 µM)	138	92.8	100	78.5	342	75.9

A second format for part of the listing above:

| SMILES | cleaved PARP positive nuclei fraction (WM115) [%] | cleaved PARP positive nuclei fraction (WM1716) [%] | cleaved PARP positive nuclei fraction (WM1745) [%] | cleaved PARP positive nuclei fraction (WM3526) [%] | cleaved PARP positive nuclei fraction (WM3619) [%] | cleaved PARP positive nuclei fraction (WM451Lu) [%] |
| --- | --- | --- | --- | --- | --- | --- |
| Cn1cc(C2=C(c3cn(C4CCN(Cc5ccccn5)CC4)c4ccccc34)C(=O)NC2=O)c2ccccc21 [Enzastaurin] + CS(=O)(=O)c1ccc(C(=O)Nc2ccc(Cl)c(-c3ccccn3)c2)c(Cl)c1 [vismodegib] (first compound 0.8 µM, partner dose 1 µM) | 113 | 136 | 91 | 149 | 76.6 | 231 |
| N#CC[C@H](C1CCCC1)n1cc(-c2ncnc3[nH]ccc23)cn1 [ruxolitinib] + C[As](C)SC[C@H](NC(=O)CC[C@H](N)C(=O)O)C(=O)NCC(=O)O [Darinaparsin] (first compound 1 µM, partner dose 0.4 µM) | 68.4 | 65.8 | 93.5 | 83.8 | 98 | 101 |
| Cn1cc(C2=C(c3cn(C4CCN(Cc5ccccn5)CC4)c4ccccc34)C(=O)NC2=O)c2ccccc21 [Enzastaurin] + OCc1c[nH]c2ccccc12 [Indole-3-carbinol] (first compound 0.8 µM, partner dose 0.8 µM) | 111 | 124 | 92.5 | 27.2 | 100 | 88.1 |
| Cn1sc(=O)n(Cc2ccccc2)c1=O + Cc1cc(SCc2sc(-c3ccc(C(F)(F)F)c(F)c3)nc2C)ccc1OCC(=O)O [GW0742] (first compound 0.4 µM, partner dose 2 µM) | 114 | 33.7 | 557 | 141 | 101 | 211 |
